Measured values taken from patent US9808527B2, “Methods and compositions for treating HIV infections” (priority 2006, dated 2017).
“Also recorded” adds a separate entry of the source. Like-named read-outs stand apart in the source and are kept apart here. For at least one compound, name, drawing or mass did not settle the structure.

Biological target: T1, CFP- and YFP-tagged HIV-1 protease subunits (Human immunodeficiency virus type 1 group M subtype B, UniProt P12497)
T1 construct: expressed in transfected cells; host or cells: Cos-7
Format: cell-based
Method: After 72 hr, cultured cells were examined in the FRET-HIV-1 assay system using confocal microscopy Fluoview FV500 confocal laser scanning microscope, and CFP^A/B were determined and plotted. […] The FRET efficiency was determined following acceptor photobleaching as previously described (Bastiaens et al., EMBO 1996; Siegel et al., Science's stke 2000; Firulli et al., Nature genetics, 2005; Szczesna et al., JBC 2003). Dequenching of the donor CFP by selective photobleaching of the acceptor YFP was performed by first obtaining YFP and CFP images at the same focal plane, followed by illuminating for 3 min the same image at wavelength of 488 nm with a laser power set at the maximum intensity to bleach YFP and re-capturing the same CFP and YFP images. The changes in the CFP and YFP fluorescence intensity in the images of selected regions were examined and quantified using Olympus FV500 Image software system. Background values were obtained from the regions where no cells were present and were subtracted from the values for the cells examined in all calculations. For each chimeric protein, the data were obtained from at least three independent experiments. FRET efficiency was determined using the formula: ET=(1−(IDA/ID))×100, where IDA and ID represent the steady-state donor fluorescence in the presence and absence of the acceptor, respectively. Digitized image data obtained from the experiment were prepared for presentation using Photoshop 6.0 (Adobe systems, Mountain View, Calif.). Ratios of intensities of ECFP fluorescence after photobleaching to ECFP fluorescence prior to photobleaching were determined. The ratios of more than 1 indicate that dimerization of CFP- and YFP-tagged protease subunits occurred and those of less than 1 indicate that dimerization was blocked by the test agent.
Generation of FRET-based HIV-1 expression assay. The basic concepts of the intermolecular fluorescence resonance energy transfer (FRET)-based HIV-1-expression assay (FRET-HIV-1 assay) are shown in FIG. 7. Within a plasmid (pHIV-1NL4-3), which encodes a full-length molecular infectious HIV-1 clone, the gene encoding a cyan fluorescent donor protein (CFP) was attached to the downstream end (C-terminus) of the gene encoding an HIV-1 protease subunit through the flexible linker added (five alanines), generating pHIV-1NL4-3/CFP (FIG. 7A). Within the other plasmid (pHIV-1NL4-3), the gene encoding a yellow fluorescent acceptor protein (YFP) was attached to the downstream end of protease-encoding gene in the same manner, generating pHIV-1NL4-3/YFP. Both CFP and YFP were designed to have phenylalanine and proline in the connection with reverse transcriptase so that the protease is cleaved from reverse transcriptase when two subunits dimerize and the dimerized protease acquires enzymatic activity. […] A focused laser beam excitation of CFP (triggered by Helium-Cadmium laser) results in rapid energy transfer to YFP, and most of the fluorescence photons are emitted by YFP (Miyawaki et al. Nature 388(6645):882-887 (1997)). […]
In order to interpret the energy transfer efficiency quantitatively, an acceptor photobleaching technique was used, in which the change in CFP emission quenching is measured by comparing the value before and after selectively photobleaching YFP, which prevents problems associated with variable expression levels.

| SMILES | inhibition of protease dimerization (10 μM, Cos-7 cells) | inhibition of protease dimerization (10 μM, Cos-7 cells, listed as lamivudine) | inhibition of protease dimerization (1 μM, Cos-7 cells) | CFP A/B ratio (CFP fluorescence after/before photobleaching) (1 μM, Cos-7 cells, ratio <1 = dimerization blocked) | inhibition of protease dimerization (concentration not given) |
| --- | --- | --- | --- | --- | --- |
| Nc1ccn([C@@H]2CS[C@H](CO)O2)c(=O)n1 [Compound 3TC, lamivudine] | failed to inhibit the dimerization | did not block the dimerization; also recorded: failed to inhibit HIV-1 protease dimerization | – | – | – |
| CCC[C@@]1(CCc2ccccc2)CC(O)=C([C@H](CC)c2cccc(NS(=O)(=O)c3ccc(C(F)(F)F)cn3)c2)C(=O)O1 [TPV, tipranavir] | – | – | blocked the dimerization | 0.75±0.19 | has the ability to disrupt protease dimerization |
